For at least one entry, the source does not settle the construct or the ends of the probe. A negative result means that nothing was seen under these conditions. For part of these data: Protein sequences can lack the tags named with them.
These sequences were tested against ArgR (UniProt Q9L1A5) (assay: EMSA). Conditions: L-arginine, unlabeled probe competition at 9.5x and 19x; EMSA: 5 uL buffer (10 mM Tris-HCl pH 7.4, 5 mM MgCl2, 2.5 mM CaCl2, 250 mM KCl, 0.5 mM DTT, 10 mM L-arginine) in 15 uL, poly(dI-dC) 1.3 ug/mL, 10% glycerol, 2 nM probe; recombinant protein; protein details: Strep-tag; label: 6-FAM; probe letters rebuilt from the primers and the genome; part of a longer molecule.

| Sequence | binding result |
| --- | --- |
| GCGACCTCGCCTGGTTCCACGACATGCACATCGGCTACATGCCGTACTACATCAACGCGTTCGCCTTCTACGGCCTGCTCACCGAGCTGTGCGCCCGCTGGCTCGGCAGCGACGGCGTGGGCCTGCAGAACCGCGTCAAGACCGACATGTCCAGCCTGCGCACCGTCGAGTCGGCCAAGGAGGTCTGGTCGGTCGCCCAGGCCGCCAAGAACGA (double strand) [redH (SCO5896) probe] | binds |

Same assay, conditions: L-arginine; EMSA: 5 uL buffer (10 mM Tris-HCl pH 7.4, 5 mM MgCl2, 2.5 mM CaCl2, 250 mM KCl, 0.5 mM DTT, 10 mM L-arginine) in 15 uL, poly(dI-dC) 1.3 ug/mL, 10% glycerol, 2 nM probe; recombinant protein; protein details: Strep-tag; label: 6-FAM; probe letters rebuilt from the primers and the genome; part of a longer molecule

| Sequence | binding result |
| --- | --- |
| CGGATACTCGCACAAGCAGAATTTAAGAATTCTACTCAGCGCAGCTTCCCGTATTCTTCTGCCCGCTTTCTTCGGACCTAAACACAAAGATTTCACGACTAACGATCTTCACATTTCGGACACGTCTCGCACGGGTTACGCGATTGTGACCCGATCCACATGCTGCCCGATTTGCGGCTTACGCACCCGTCAAATCGCCCCATAACGCCGTCGTCTCGCGCGGAAGCACGCGCCCGCGTGATAACACAAGCGGCACTCATTCGTAACCCCATCCGGCGATGCAATTTCGAATTTCGCTGGGTAAATTCAATTTGCATGACTGCCGCGCAAGCAGACCTGCAAATCGATCGTCC (double strand) [ectA (SCO1863-SCO1864) intergenic probe] | binds |
| TGTGGCGTCCGCGTCCTTCATCTTGTCGCTCATGGACTTCGCTCCTCATGGGTCGTGACGAGGTAGCAACGCCCGTCCGGTAGCTCCCCCGTAGGCTGCCGGACGGGCGCGCGGAGCCGCACACTAACTGGTGGGCTCGGTCGTCATCCGTCTGCCCCCCGATGCGACGGTCTGACGGAGATGACAGTGCCAGGGGGAGATAAACGAACGCTGAACGCTCCGG (double strand) [afsS (SCO4425) promoter probe] | binds |
| CGCTGCCAGGAGTTGAGGATGCCCTCGGGCACGACCGCCGCAGGCAGTTCCGCGTTCTGAAGGAACTTCAGGCGTGCTCGCGCGATGGTTCGGTCGCGCGCTGTGCTGTCACTGAGCATGGCGCCCCTCCGATGAGCGTGTTTCCGCCATATTACGAACGCGTTTGCACCTGTCAACGGGGGGTTGGGTACGGCTTTTCCCCGCGTTCGCCGTGCCCTGATCAGGGGCGGGCCGGGTGTGTTCCACATTGAAAAAGTCGACGGCGCTCCCCGCCCGCACGCTGTTGGGCAGCACCGCACGAGAGCGCGGAGGCTCCCCGCCGAGCAGTCGAACCCTGGAGGACCCAT (double strand) [SCO0255-SCO0256 intergenic probe] | binds |
| TCCTCCTCTTCCGCCGGGAATCCGGGACGCCGCTGCTCCGGAACCCGCGGTCCACCGTCCATGCCGTCCCCCTAGACATCCTGAGCAACCACGTCAGTTTGCCTTGTTCATGCCGACCACGTCAGCCGTGGGAGACGCCGATCACAGGTTCTCCATCAGCTTCTTCGGCTTTGCCCCTCCAACTCCACCCGTACCGTCAGCAGCCCCGTCCCGACGCCCATCGCCCGCACCGCCACGCTGTTGAGGCGGGGGAGG (double strand) [afsR (SCO4426) promoter probe] | binds |
| GACGCACATCATGGAGACCGTCGACATCGGCGTCCCCCTGCGCACCGTCTACGACCAGTGGACGCAGCTCCAGGACTTCAGCGACTTCACCAAGGGCGTGCAGAGCGTCAGCCCCCACGACGAGACGACCTCGGACTGGACCGCCAAGATCGCTTTCTCGACCCGCAGCTGGAAG (double strand) [gvpZ2 (SCO0654) coding region probe] | no binding |
| GCGTAGGTGACGCTCCATCAGTGAGCTTCTTCGATGTGGCCACCGATCGGGTGACGGGCCGTGAAGCGCAACGAGCGAGGCCCCCGGGCTGTTGATCGAGATGTCTGACGTCTCAATCACGTTGCTCGGGGGCCTCGTTGGTCATGCATCCTGCCGCACTTGACCTGCCGCATGCACTCGTGGAGTGGGCCACCATGCT (double strand) [SCO5326 probe] | binds |

Each sequence was assayed against T1, ArgR (Streptomyces coelicolor M145) (UniProt Q9L1A5) (assay: EMSA). Conditions: L-arginine (10 mM in binding buffer); 15 uL reaction with 5 uL buffer (10 mM Tris-HCl pH 7.4, 5 mM MgCl2, 2.5 mM CaCl2, 250 mM KCl, 0.5 mM DTT, 10 mM L-arginine), poly(dIdC) 1.3 ug/mL, 10% glycerol; recombinant protein; protein details: Strep-tag; label: 6-FAM; flanks not given.
T1 sequence (looked up, limits assumed): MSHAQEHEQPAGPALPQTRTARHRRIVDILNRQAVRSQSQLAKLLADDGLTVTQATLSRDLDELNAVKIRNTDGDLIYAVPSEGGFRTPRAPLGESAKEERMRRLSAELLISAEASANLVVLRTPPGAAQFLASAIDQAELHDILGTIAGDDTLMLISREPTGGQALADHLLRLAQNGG

| Sequence | binding result |
| --- | --- |
| GAGGTGGTGCGTGGTCATGGGGCCAGCGTACTCCTCATTCGAAAGTCTGTTCTATCCATGGCGTCGCCGTTGTTCGTCGTCGTTCGTCGTCGGTCCGTGACTGCCTGCTCTTTCGATACGCCGGTGTATCCGATACATTCCCGTATCGAACCGAGCGAAGGGTCCGGACATGACGGCGAAGGCGACCACCGGGCGGGTGACCAGGAGGCGCGTGCACACCCGTGCGAACCTCCTGGACGCCGCGTTCGCGGTGTTCGCCGCCAAGGGCTTCGGACGGGTGTCGATCGAGGAGGTCTGCGA (double strand) [Bidirectional intergenic region SCO7302-3] | no binding |
| CGTATGACCCGCCCGGACACCGACGGCTCCGCCGCCCGGCTCTCCCTCGTCCCCCTCACCCTCCCTCTCCCCCTCCCCCGTTCCACCCGTTCCCCGGGAGTCACCGCATGACGACGCTCACGACGACGCCGGACGGGAGCGCGGCCCGCAGGTCCGTTCCGCCGCCCTCCCCCGCCCCGGCCGCGGGCCGGCGCCGGCAGGGCGGCACCGTCCTCGCGGTGCCCGCGCTGGTCT (double strand) [Promoter region of SCO0454] | no binding |
| GCGTAGGTGACGCTCCATCAGTGAGCTTCTTCGATGTGGCCACCGATCGGGTGACGGGCCGTGAAGCGCAACGAGCGAGGCCCCCGGGCTGTTGATCGAGATGTCTGACGTCTCAATCACGTTGCTCGGGGGCCTCGTTGGTCATGCATCCTGCCGCACTTGACCTGCCGCATGCACTCGTGGAGTGGGCCACCATGCT (double strand) [Bidirectional intergenic region SCO5326-7] | binds |
| CGCGTGGGGACGAGGACGGGTCGAGGTCTTTCGGTCCTGGCATGGTGACGGAACTCCCGGTCGCACAGCAGGGGTTGTTGGAGCGCCCTGTATGGCCAGGTTAGGGGCGGGGTGGACACGCTGTGTCGTGAATCACGAACTCAGCGTGGAGGTGAGGAAGGGTGCGGTCGACCGAAGAAGTCGTCGAGTCCCTGCGGCAGGCCCTC (double strand) [Bidirectional intergenic region SCO4301-2] | no binding |
| CCCGGCTGCTACGGAATTGTTCTCACTGGTGACCACGCTCGGCTGCCCTTTCCTGGCTGTGTCGTCCGGACATCTGCCCGCGAAAACGCACGCGGCCGCGACCCGAATCCTCTTCCAGACCTTGCAAGCAATGTGACGAAAGACTAGAAACACCGGGTAGGTGATCAGTCACGGCGTGGTAACTGCCGCCGCTGGAATGCCTGATGACCGGCCCGTTG (double strand) [Promoter region of SCO6275, cpkA] | no binding |

Reference: PMC5839063
